In patent publication US20150174186A1, “PHARMACEUTICAL COMPOSITION FOR PREVENTING OR TREATING STAT3-MEDIATED DISEASE, COMPRISING SALVIA PLEBEIA R. BR. EXTRACT OR FRACTION THEREOF AS ACTIVE INGREDIENT” (Korea Research Institute of Bioscience and Biotechnology, priority 2012, published 2015):

Columns and labels:
osteoclasts = test: Differentiation and formation of osteoclasts from bone marrow macrophages (TRAP assay); type: cell-based, ICR mouse; conditions: 30 and 60 μM
Text: Osteoclasts are known to directly affect bone resorption, and the differentiation and formation of osteoclasts play a very important role in osteoporosis. In order to examine the effect of the ethanol extract of Salvia plebeia R. Br. on the differentiation and formation of osteoclasts, the differentiation from bone marrow cells isolated from the femur of an ICR mouse into osteoclasts was observed.
Bone marrow cells were separated from the femur of a three- to six-week old ICR mouse, and the separated cells were treated with M-CSF (30 ng/ml) for 3 days, thereby inducing their differentiation into bone marrow macrophage (BMM). Then, the BMM was treated with M-CSF (30 ng/ml) and RANKL (100 ng/ml) for 4 days, thereby inducing them to be differentiated into osteoclasts. In order to examine the efficacies of the ethanol extract of Salvia plebeia R. Br., the BMM cells, which had not been differentiated into osteoclasts, were treated with the Salvia plebeia R. Br. extract at concentrations of 10, 30, and 60 μg/ml, followed by treatment with M-CSF and RANKL for 4 days. Then, the differentiation and formation of osteoclasts were confirmed by TRAP assay.

[1] = system: mouse model with osteoporosis induced by ovariectomy; test: Mouse model with osteoporosis induced by ovariectomy (DEXA, micro CT); type: in vivo, C57BL/6 mouse; conditions: compared to PBS after ovariectomy, oral, five weeks
Experimental: Test groups were divided into a sham group (only surgery without ovary removal) and a group treated with ovariectomy (OVX). In the OVX group, the ovaries of an eight-week old female C57BL/6 mouse were removed by surgery and the mouse was bred for 6 weeks to induce osteoporosis. Then, the mouse was orally administered with PBS, alendronate (3 mg/kg), or ethanol extract of Salvia plebeia R. Br. (100 mg/kg, 300 mg/kg or 500 mg/kg) for five weeks. The sample was used after dissolving in PBS. Furthermore, the sham group was orally administered with PBS for five weeks.
Upon termination of five weeks' oral administration, the Bone Mineral Density (BMD) and Bone Mineral Content (BMC) of the mouse were measured using an osteoporosis analyzing device Dual-Energy X-ray Absorptiometry (DEXA; bone mineral density analyzer), and the results are shown in FIG. 21a-21d.
Upon termination of five weeks' oral administration, the mice of each experimental group were sacrificed, and the bones adjacent to tibia were separated. The bones were then photographed to obtain their 3-dimensional structures and cross-sections via micro CT, and the microstructures and volume of the bones and trabecular thickness were measured. […] Additionally, the therapeutic effect was determined based on the trabecular separation and the trabecular number.

NCCCC(O)(P(=O)(O)O)P(=O)(O)O [alendronate]
toxicity to BMM cells (osteoclasts): serious toxicity was observed
Bone Mineral Density (BMD) [1]: significant increase
